Assay results from US8883771B2.

Sequences of proteins named here, by UniProt entry; tags and fusion partners are left off. Residues count along the entry.
UniProt P98170, 120-356 limits assumed: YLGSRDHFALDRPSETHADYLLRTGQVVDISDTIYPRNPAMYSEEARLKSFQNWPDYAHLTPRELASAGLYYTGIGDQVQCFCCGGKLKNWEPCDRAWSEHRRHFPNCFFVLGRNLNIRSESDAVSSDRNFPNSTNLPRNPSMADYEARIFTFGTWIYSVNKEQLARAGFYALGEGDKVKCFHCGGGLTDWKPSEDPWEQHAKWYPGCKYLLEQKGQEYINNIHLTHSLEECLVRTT

Experiments:
[1] = tested on: MDA-MB-231 breast cancer cell line; test: Inhibition of cell growth in MDA-MB-231 breast cancer cell line; assay type: cell-based, human; conditions: read-out: Cell growth Inhibition (IC50, nM) MDA-MB-231 Cancer Cell Line
[2] = tested on: SK-OV-3 ovarian cancer cell line; test: Inhibition of cell growth in SK-OV-3 ovarian cancer cell line; assay type: cell-based, human; conditions: read-out: Cell growth Inhibition (IC50, nM) SK-OV-3 Cancer Cell Line
[3] = target: XIAP linker-BIR2-BIR3 (residues 120-356) (Homo sapiens (Human), UniProt P98170); test: Fluorescence polarization (FP) based competitive binding assay, XIAP linker-BIR2-BIR3; conditions: read-out: Binding Affinities IC50 (nM) XIAP Protein, Smac-1F probe
[4] = target: cIAP1-BIR3 (residues 253-363) (Homo sapiens (Human), UniProt Q13490); test: Fluorescence polarization (FP) based competitive binding assay, cIAP1-BIR3; conditions: read-out: Binding Affinities IC50 (nM) cIAP1 Protein, Smac-2F probe
[5] = target: cIAP-2 BIR3 (residues 238-349) (Homo sapiens (Human), UniProt Q13489); test: Fluorescence polarization (FP) based competitive binding assay, cIAP-2 BIR3; conditions: read-out: Binding Affinities IC50 (nM) cIAP2 Protein, Smac-2F probe

**Q.** `CN[C@@H](C)C(=O)N[C@H]1CN(C(=O)Nc2ccc(NC(=O)N3CC[C@H]4CC[C@@H](C(=O)N[C@H]5C[C@@H]5c5ccc(C(F)(F)F)cc5)N4C(=O)[C@@H](NC(=O)[C@H](C)NC)C3)cc2)CC[C@H]2CC[C@@H](C(=O)N[C@H]3C[C@@H]3c3ccc(C(F)(F)F)cc3)N2C1=O` [Example 35] was tested. Which IC50 [1] did it give?
**A.** The IC50 was < 10000 nM.

**Q.** And the IC50 [2]?
**A.** Its IC50 is < 10000 nM.

**Q.** How did the IC50 [1] turn out when `CN[C@@H](C)C(=O)N[C@H]1CN(C(=S)Nc2ccc(Cc3ccc(NC(=S)N4CC[C@H]5CC[C@@H](C(=O)NC(c6ccccc6)c6ccccc6)N5C(=O)[C@@H](NC(=O)[C@H](C)NC)C4)cc3)cc2)CC[C@H]2CC[C@@H](C(=O)NC(c3ccccc3)c3ccccc3)N2C1=O` was run?
**A.** The IC50 was < 1000 nM.

**Q.** What about the IC50 [2] of the same molecule?
**A.** The IC50 was < 1000 nM.

**Q.** What does the source list for `CN[C@@H](C)C(=O)N[C@H]1CN(C(=O)NCCCCCCNC(=O)N2CC[C@H]3CC[C@@H](C(=O)N[C@@H]4CCCC[C@H]4c4ccccc4)N3C(=O)[C@@H](NC(=O)[C@H](C)NC)C2)CC[C@H]2CC[C@@H](C(=O)N[C@@H]3CCCC[C@H]3c3ccccc3)N2C1=O`?
**A.** IC50 [3]: < 5000 nM; IC50 [4]: < 5000 nM; IC50 [5]: < 5000 nM; IC50 [1]: < 1000 nM; IC50 [2]: < 1000 nM

**Q.** How did the IC50 [1] turn out when `CN[C@@H](C)C(=O)N[C@H]1CN(C(=O)Nc2ccc(NC(=O)N3CC[C@H]4CC[C@@H](C(=O)N[C@H]5C[C@@H]5c5ccc(C(F)(F)F)cc5F)N4C(=O)[C@@H](NC(=O)[C@H](C)NC)C3)cc2)CC[C@H]2CC[C@@H](C(=O)N[C@H]3C[C@@H]3c3ccc(C(F)(F)F)cc3F)N2C1=O` was run?
**A.** Its IC50 is < 10000 nM.

**Q.** What about the IC50 [2] of the same molecule?
**A.** The IC50 was < 10000 nM.

**Q.** `CN[C@@H](C)C(=O)N[C@H]1CN(S(=O)(=O)c2cccc(S(=O)(=O)N3CC[C@H]4CC[C@@H](C(=O)NC(c5ccccc5)c5ccccc5)N4C(=O)[C@@H](NC(=O)[C@H](C)NC)C3)c2)CC[C@H]2CC[C@@H](C(=O)NC(c3ccccc3)c3ccccc3)N2C1=O` was tested. Which IC50 [1] did it give?
**A.** The IC50 was < 100 nM.

**Q.** And the IC50 [2]?
**A.** Its IC50 is < 100 nM.

Structures were worked out from names or drawings and are uncertain.
